The other results are listed elsewhere or left out.

This experiment has as its target T1, OsSMF1 (Oryza sativa, UniProt Q6ZLB0 1-436).
T1 sequence: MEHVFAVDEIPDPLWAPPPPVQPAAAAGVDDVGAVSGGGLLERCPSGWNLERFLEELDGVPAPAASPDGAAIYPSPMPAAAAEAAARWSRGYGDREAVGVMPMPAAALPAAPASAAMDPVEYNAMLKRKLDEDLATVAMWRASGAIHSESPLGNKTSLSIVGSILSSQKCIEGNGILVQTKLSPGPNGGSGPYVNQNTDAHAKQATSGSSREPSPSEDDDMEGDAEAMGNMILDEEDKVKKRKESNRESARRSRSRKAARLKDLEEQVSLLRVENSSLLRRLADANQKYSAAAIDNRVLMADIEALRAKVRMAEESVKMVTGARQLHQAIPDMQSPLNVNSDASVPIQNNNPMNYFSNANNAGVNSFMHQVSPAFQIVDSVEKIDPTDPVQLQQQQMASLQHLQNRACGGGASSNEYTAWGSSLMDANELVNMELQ
The experiment in a line: protein-binding microarray (RPBM); PBS, 2% BSA, 51.3 ng/ul salmon testes DNA, 50 uM zinc acetate, 200 nM TF, 25 C, 1 h; high values mean tight binding. The following applies: protein: recombinant; tags: N-terminal polyhistidine and DsRed monomer fusion (pET32a); chain copies: 2; label: CyDye5-dUTP incorporated in the synthesized complementary strand; 3' TTTTT single-stranded linker to array surface; dsDNA, one strand shown. The gist of the method: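 For the binding signal, per-feature fluorescence intensity was read in arbitrary units on an Axon 4000B scanner. Before scanning, a 2% BSA-blocked custom Agilent array made double-stranded with Cy5-dUTP was washed after 1 h at 25 °C with 200 nM protein and 50 µM zinc acetate. The proteins were Ni–NTA-purified transcription factors with N-terminal polyhistidine and DsRed fusions, expressed in E. coli BL21-CodonPlus.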
For “GCGCGGTGGTGGTGGTGGTGGTTGCTGTGGTAGCGAGGGTCGGAGTCACCTAGTGCAG”, the binding signal is 4520 fluorescence intensity (a.u.).
In the case of “ATAGCTTGCTGCAGAATTGCTAATTAGCGCATACGCGTCACGGAGTCACCTAGTGCAG”, the binding signal was 4920 fluorescence intensity (a.u.).
“AGAGGGAGGAGGAGGAAGGAAAGGAGAGAGGATGACCTGTCGGAGTCACCTAGTGCAG”: the binding signal was 3530 fluorescence intensity (a.u.).
“CCCCATCCTGATGGTCAGAGTGAGCTGGAACATGTTTGCTCGGAGTCACCTAGTGCAG”: the binding signal is 4550 fluorescence intensity (a.u.).
Regarding “ATCTCGTTGTTTTCAATGCGTAGAACTCTGTCACGACCTGCGGAGTCACCTAGTGCAG”, the binding signal is 4400 fluorescence intensity (a.u.).
As for “GGTTTACACTACTACAAAACATCAAATAGGTGTCACCACTCGGAGTCACCTAGTGCAG”, the figure is 4120 fluorescence intensity (a.u.); as for “AAAGAAGAGCAAGGATTGATTAGGGACGATTGAATCGGGACGGAGTCACCTAGTGCAG”, 3150 fluorescence intensity (a.u.).
Regarding “CCCGCCCGTGCCATCTTGCGCCGCCGCCCACCTCATGCCTCGGAGTCACCTAGTGCAG”, the binding signal was 3490 fluorescence intensity (a.u.).
Take “TCCTTGCAATCGCCACATCACGTCCTTCAAGGTGTCACAACGGAGTCACCTAGTGCAG”: the binding signal was 10300 fluorescence intensity (a.u.).
Take “TTATACACCTAGGTGGATGTCCACCTACGCCAATCTCCATCGGAGTCACCTAGTGCAG”: the binding signal is 4400 fluorescence intensity (a.u.).
With “TGACGGAGGTAGTCATCAAGTCATGGTTTCTGCCTATAATCGGAGTCACCTAGTGCAG”, the binding signal is 3140 fluorescence intensity (a.u.).
On to “TCCAAAAGTTCTTGATGTGGCATGGTGGACATGAATTTGTCGGAGTCACCTAGTGCAG”, for which the binding signal was 5240 fluorescence intensity (a.u.).
For the sequence “CGACACCCTATATACCCGATGTGACACGCCAAAACTTTACCGGAGTCACCTAGTGCAG”, the binding signal was 4060 fluorescence intensity (a.u.).
On to “GTGTTTGCCCACATAGGAATGAATACTAACAAGATATGCCCGGAGTCACCTAGTGCAG”, for which the binding signal is 28100 fluorescence intensity (a.u.).
As for “ATATATTCCGTCGCGGGAGCCGACGTGTCTCGTTCCTCGTCGGAGTCACCTAGTGCAG”, the figure is 13700 fluorescence intensity (a.u.); as for “TATCAATAAAATAATTGATGACCTGGCAGCTTAGCTTAATCGGAGTCACCTAGTGCAG”, 14600 fluorescence intensity (a.u.).
On to “AACTGGACTCTGGACAGGAGGGCTTGTGGTCAGCATGTCACGGAGTCACCTAGTGCAG”, for which the binding signal is 3430 fluorescence intensity (a.u.).
With “CCGACGCCAATAGCCCACGTCGCCGCCGCCGTCGGCCGTGCGGAGTCACCTAGTGCAG”, the binding signal was 4130 fluorescence intensity (a.u.).
Regarding “ATATATATATATATATATATATGTGTGTGTGTGTGTGTCCCGGAGTCACCTAGTGCAG”, the binding signal was 3520 fluorescence intensity (a.u.).
“CTCCTCCGCCGCCACTGTGTCGTCCCCGTCCCCGGCTGCCCGGAGTCACCTAGTGCAG”: the binding signal is 3620 fluorescence intensity (a.u.).
In the case of “CGTGCGCGCGTGCACACCAGTAAAGTGTCTACTCAGCTTCCGGAGTCACCTAGTGCAG”, the binding signal is 3940 fluorescence intensity (a.u.).
For “CTACTCGTGTACTTCCACACTCCACGCGATGACGCGACACCGGAGTCACCTAGTGCAG”, the binding signal was 9070 fluorescence intensity (a.u.).
As for “AGGTGTTTGGATGGTGGGCAACACTGGGATATGGCCACCACGGAGTCACCTAGTGCAG”, the figure is 3720 fluorescence intensity (a.u.).
As for “CGTATCATTGCCATGACGTAGTAGTAACGGACAGTATTCACGGAGTCACCTAGTGCAG”, the binding signal is 5630 fluorescence intensity (a.u.).
As for “GCGCGCGCGTTGTCGTTCGTCGTCGTCTCGCTCGCCGACGCGGAGTCACCTAGTGCAG”, the figure is 7290 fluorescence intensity (a.u.); as for “CATTACAACAAATCTATGTGTCATCACACACATCGATCAACGGAGTCACCTAGTGCAG”, 5300 fluorescence intensity (a.u.).
Turning to “TATGGATATGCCATGTCATCATTCATGCAAATCTATGATGCGGAGTCACCTAGTGCAG”, the binding signal was 8500 fluorescence intensity (a.u.).
On to “TCTTTTAAATCTTGCTTCTATGCCATGTCAACGTCATGTGCGGAGTCACCTAGTGCAG”, for which the binding signal is 9480 fluorescence intensity (a.u.).
As to “CATTAATTTTGGCATATACTCTAGCTGTCATGTTTCATTCCGGAGTCACCTAGTGCAG”, the binding signal was 3360 fluorescence intensity (a.u.).
“ATGTGTTCAACGCCTCACACTCTAGCAGCCGCGTCAGTCACGGAGTCACCTAGTGCAG”: the binding signal was 6050 fluorescence intensity (a.u.).
Regarding “TTGCGAGTAAAATTTGAATGATGTGGATGAATCTTAGCCGCGGAGTCACCTAGTGCAG”, the binding signal was 6260 fluorescence intensity (a.u.).
Consider “GTCGCCGCCGCTCCTCCACCCCACGTGCCCCTCGTGGTGGCGGAGTCACCTAGTGCAG”, for which the binding signal is 4350 fluorescence intensity (a.u.).
“CGTAACAGGCTAGTGCCCTGCCCTCTGACTCATTTGCGCTCGGAGTCACCTAGTGCAG”: the binding signal was 8840 fluorescence intensity (a.u.).
Take “CCTACACGACTTGTGTTTCGTCATCTTTTCTCATGTATTGCGGAGTCACCTAGTGCAG”: the binding signal is 4740 fluorescence intensity (a.u.).
Consider “ATGTACAAGACCTTGTAAACAAGTTTGCATGTCTCAAATACGGAGTCACCTAGTGCAG”, for which the binding signal was 3290 fluorescence intensity (a.u.).
For the sequence “CTGTTCAGATGAGTAACCCATTTCCACCCATCGTGCCAAGCGGAGTCACCTAGTGCAG”, the binding signal is 3600 fluorescence intensity (a.u.).
“GCGCCGCCGCCGTCGTCTCCGCCGCCTCCGGTGGAATCCTCGGAGTCACCTAGTGCAG”: the binding signal was 23300 fluorescence intensity (a.u.).
As for “CACGGTGAAATGCCGTGACGTGGAACCAACCAACCAACAGCGGAGTCACCTAGTGCAG”, the figure is 10400 fluorescence intensity (a.u.); as for “CATATATGCCCATCACCCCAATAAGAGTTCCGAATTAGATCGGAGTCACCTAGTGCAG”, 3560 fluorescence intensity (a.u.).
The figure for “CCAACGGTCCAGATCGCTTCCACGTCCCACCTCCCTCGATCGGAGTCACCTAGTGCAG” is 4390 fluorescence intensity (a.u.); for “ATCTGTTATTTTGGCCAATGTGTGCAGTCACACCAGAAGACGGAGTCACCTAGTGCAG” it is 3880 fluorescence intensity (a.u.); for “CCGAAAAGCCTCCCCGTCATTAGCCCGGACAGCGACCGGACGGAGTCACCTAGTGCAG” it is 3790 fluorescence intensity (a.u.).

These data come from paper PMC7819943, “Rice protein-binding microarrays: a tool to detect cis-acting elements near promoter regions in rice”.
